Holding throughout (test): log2 fold change, soluble protein after heating vs DMSO (PISA); higher = thermal stabilisation; K562 lysate, 10 uM; active = over 0.2 and 3.5 SD of the protein, either way, in both replicates (recomputed)
Compound in one test: O=C(CCCCCCC(=O)Nc1ccccc1)NO [vorinostat]
A digest of the protocol: (§1)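 K562 pellets were dounce-homogenised in PBS pH 7.4 with 1 mM MgCl2, and the crude extract at 1 mg/mL protein was treated with 10 μM compound for 30 min. Aliquots were heated for 3 min across 48°C-58°C, pooled, and brought to 0.5% NP-40 at 4°C; soluble protein was the supernatant after 21,000xg for 90 min. Soluble protein was quantified by TMTpro 16plex LC-MS/MS with channel sums equalised, and reported as log2 fold change in thermal stability against DMSO controls, with values from duplicates.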

Chains of the proteins cited; added tags and fusions are not shown. Lines headed by an entry give the natural chain unless they say otherwise; changes in a name come on top.
UniProt P14210, whole entry, looked up: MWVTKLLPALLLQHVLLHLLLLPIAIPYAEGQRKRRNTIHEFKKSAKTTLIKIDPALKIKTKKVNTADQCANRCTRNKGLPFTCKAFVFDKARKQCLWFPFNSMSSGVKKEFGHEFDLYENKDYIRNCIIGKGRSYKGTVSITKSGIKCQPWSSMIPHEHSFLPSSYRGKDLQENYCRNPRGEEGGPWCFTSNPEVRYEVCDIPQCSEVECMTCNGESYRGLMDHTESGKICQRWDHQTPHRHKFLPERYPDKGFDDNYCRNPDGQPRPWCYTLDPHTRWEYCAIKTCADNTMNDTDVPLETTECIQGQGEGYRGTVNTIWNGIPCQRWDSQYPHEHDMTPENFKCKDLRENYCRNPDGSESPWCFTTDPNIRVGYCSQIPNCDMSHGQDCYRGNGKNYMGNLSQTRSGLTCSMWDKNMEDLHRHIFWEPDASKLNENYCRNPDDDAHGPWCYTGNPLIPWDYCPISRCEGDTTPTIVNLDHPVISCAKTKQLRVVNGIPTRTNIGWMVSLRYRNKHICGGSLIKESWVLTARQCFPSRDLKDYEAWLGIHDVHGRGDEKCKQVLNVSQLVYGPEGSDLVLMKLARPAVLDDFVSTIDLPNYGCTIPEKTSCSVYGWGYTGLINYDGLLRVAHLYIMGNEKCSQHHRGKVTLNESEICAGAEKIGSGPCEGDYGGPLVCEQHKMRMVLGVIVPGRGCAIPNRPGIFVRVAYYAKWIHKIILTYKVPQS
UniProt Q15034: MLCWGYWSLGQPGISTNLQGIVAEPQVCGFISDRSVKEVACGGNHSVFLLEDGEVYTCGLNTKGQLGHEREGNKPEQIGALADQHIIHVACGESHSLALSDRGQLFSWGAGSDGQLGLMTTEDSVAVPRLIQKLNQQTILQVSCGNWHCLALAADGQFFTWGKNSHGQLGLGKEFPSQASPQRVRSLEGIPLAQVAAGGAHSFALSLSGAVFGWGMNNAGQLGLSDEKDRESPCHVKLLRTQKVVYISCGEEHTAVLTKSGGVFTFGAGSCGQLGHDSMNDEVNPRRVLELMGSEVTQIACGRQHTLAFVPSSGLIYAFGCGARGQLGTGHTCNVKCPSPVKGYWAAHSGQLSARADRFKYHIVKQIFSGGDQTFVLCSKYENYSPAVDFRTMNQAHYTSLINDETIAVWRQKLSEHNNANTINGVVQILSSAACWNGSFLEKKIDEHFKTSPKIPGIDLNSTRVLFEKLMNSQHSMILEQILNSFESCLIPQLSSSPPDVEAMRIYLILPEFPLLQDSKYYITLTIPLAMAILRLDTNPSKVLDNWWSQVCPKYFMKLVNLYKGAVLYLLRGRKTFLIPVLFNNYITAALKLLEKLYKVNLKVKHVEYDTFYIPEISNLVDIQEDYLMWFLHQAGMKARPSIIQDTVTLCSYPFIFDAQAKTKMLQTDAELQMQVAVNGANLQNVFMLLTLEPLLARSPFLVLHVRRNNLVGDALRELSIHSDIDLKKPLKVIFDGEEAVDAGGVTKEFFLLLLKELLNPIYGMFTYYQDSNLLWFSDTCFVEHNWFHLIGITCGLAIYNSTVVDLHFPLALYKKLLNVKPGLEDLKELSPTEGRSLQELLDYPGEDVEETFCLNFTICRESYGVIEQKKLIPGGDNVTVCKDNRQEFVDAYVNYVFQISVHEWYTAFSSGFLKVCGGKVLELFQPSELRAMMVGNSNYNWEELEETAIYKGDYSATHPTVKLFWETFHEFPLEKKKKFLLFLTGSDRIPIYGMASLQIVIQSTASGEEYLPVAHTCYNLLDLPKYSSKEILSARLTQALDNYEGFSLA
UniProt Q9UJC3, whole entry, looked up: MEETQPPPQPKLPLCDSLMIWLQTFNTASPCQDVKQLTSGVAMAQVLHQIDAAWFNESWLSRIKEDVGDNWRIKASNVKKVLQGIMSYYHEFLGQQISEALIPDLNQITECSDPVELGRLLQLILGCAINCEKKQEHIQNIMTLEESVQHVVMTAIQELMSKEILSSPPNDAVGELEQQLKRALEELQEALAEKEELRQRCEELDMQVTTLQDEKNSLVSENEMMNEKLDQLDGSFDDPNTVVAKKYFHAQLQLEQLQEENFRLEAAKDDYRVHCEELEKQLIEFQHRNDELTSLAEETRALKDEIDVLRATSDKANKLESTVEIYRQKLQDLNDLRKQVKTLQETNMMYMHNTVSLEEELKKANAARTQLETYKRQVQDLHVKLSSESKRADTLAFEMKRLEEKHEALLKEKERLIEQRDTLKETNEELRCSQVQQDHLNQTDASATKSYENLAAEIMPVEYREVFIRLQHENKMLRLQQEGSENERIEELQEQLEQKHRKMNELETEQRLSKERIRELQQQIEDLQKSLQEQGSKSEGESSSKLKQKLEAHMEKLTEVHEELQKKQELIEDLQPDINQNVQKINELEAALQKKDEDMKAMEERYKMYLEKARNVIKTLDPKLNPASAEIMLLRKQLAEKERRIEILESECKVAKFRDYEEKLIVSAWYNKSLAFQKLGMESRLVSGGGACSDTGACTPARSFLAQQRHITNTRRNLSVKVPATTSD
UniProt Q9NSC5: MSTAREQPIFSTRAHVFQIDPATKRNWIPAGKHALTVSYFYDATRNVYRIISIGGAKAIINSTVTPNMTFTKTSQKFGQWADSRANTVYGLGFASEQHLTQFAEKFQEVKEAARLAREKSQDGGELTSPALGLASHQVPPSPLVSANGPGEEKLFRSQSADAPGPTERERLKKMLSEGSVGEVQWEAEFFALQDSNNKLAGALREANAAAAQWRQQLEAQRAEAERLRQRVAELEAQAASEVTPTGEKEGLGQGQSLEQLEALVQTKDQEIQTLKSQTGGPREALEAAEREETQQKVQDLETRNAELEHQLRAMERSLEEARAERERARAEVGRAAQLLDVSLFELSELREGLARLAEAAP

Compound in another test: O=C(O)c1ccc2c(c1)nc(Nc1cccc(Cl)c1)c1ccncc12 [silmitasertib]
A digest of the protocol:
as §1

Compound in test [1]: O=C1NC(=O)C(c2cnc3ccccn23)=C1c1cn2c3c(cc(F)cc13)CN(C(=O)N1CCCCC1)CC2
The method in brief:
as §1

Compound in the next test: c1cn2cc(-c3ccc4cn[nH]c4c3)nc(Nc3ccc(N4CCOCC4)cc3)c2n1 [entospletinib]
A digest of the protocol:
as §1

Compound in test [2]: NCC(=O)Nc1ccc(-n2nc(C(F)(F)F)cc2-c2ccc3c(ccc4ccccc43)c2)cc1
The method in brief: as §1

The list shows a part of the results.

On to HGF (UniProt P14210), for which the results for the log2 fold change (with vorinostat; in the test with silmitasertib; in test [1]) were inactive: -0.315, inactive: 0.163 and inactive: -0.044, respectively.

HLA-DRA: the log2 fold change in the test with entospletinib is inactive: -0.069.

On to HRAS (UniProt P01112), for which the log2 fold change with vorinostat is inactive: 0.026; with silmitasertib, inactive: -0.008; in test [1] it was inactive: -0.017; with entospletinib, inactive: -0.051.

HERC3 (UniProt Q15034): the log2 fold change in test [1] was inactive: -0.025; with entospletinib it was inactive: -0.12.

Take HOOK1 (UniProt Q9UJC3): the log2 fold change with vorinostat was inactive: 0.131; in the test with silmitasertib, inactive: -0.066.

For the target HOMER3 (UniProt Q9NSC5), the log2 fold change in test [1] was inactive: -0.022.

On to HNRNPM (UniProt M0QZM1), for which the log2 fold change was inactive: 0.125 in test [2], inactive: 0.038 in test [1] and inactive: 0 with entospletinib.

For the origin of these results see the supplement of paper PMC10849652.
